According to patent US12435352B2, “Mass spectrometric measurement of β-lactamase resistances” (Bruker Daltonics GmbH & Co. KG, priority 2010, dated 2025):

System: DH5a strain of E. coli
Experiment: Mass spectrometric (MALDI-TOF) measurement of hydrolytic breakdown of substrate in bacterial suspension, non-resistant strain
Assay type: cell-based
Conditions: DH5a strain of E. coli (no resistance); 10 mg/ml ampicillin solution; incubated three hours at 37° Celsius; FIG. 1 top

SMILES	breakdown of substrate (hydrolysis of β-lactam ring) seen in mass spectrum
CC1(C)S[C@@H]2[C@H](NC(=O)[C@H](N)c3ccccc3)C(=O)N2[C@H]1C(=O)O [ampicillin]	no breakdown
CC1(C)S[C@@H]2[C@H](NC(=O)[C@H](N)c3ccccc3)C(=O)N2[C@H]1C(=O)[O-].[Na+] [sodium salt of ampicillin]	no breakdown
